Results on two sequences are retold here after patent US20060021091, “Maize bZIP transcription factors and genes encoding the same and use thereof” (published 2006).

What all share (experiment): one hybrid
Conditions in all cases: protein in cells, label: 32P 5' end (EMSA)
(In general: In EMSA bound probe runs differently from free probe, usually more slowly.)

In data set [1] the test system is T1, ABP2 (in cells) (Zea mays).
T1 sequence: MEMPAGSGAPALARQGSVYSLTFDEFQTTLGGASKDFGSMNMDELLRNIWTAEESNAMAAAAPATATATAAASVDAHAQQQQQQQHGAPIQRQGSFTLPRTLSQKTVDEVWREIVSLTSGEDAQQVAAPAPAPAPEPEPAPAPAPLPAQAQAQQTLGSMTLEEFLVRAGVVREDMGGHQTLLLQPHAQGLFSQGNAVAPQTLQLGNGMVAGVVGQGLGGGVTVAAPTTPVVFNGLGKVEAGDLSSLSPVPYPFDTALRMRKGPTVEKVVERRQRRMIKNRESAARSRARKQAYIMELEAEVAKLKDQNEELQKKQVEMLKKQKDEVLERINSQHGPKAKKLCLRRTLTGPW

In data set [2] the test system is T2, ABP4 (in cells) (Zea mays).
T2 sequence: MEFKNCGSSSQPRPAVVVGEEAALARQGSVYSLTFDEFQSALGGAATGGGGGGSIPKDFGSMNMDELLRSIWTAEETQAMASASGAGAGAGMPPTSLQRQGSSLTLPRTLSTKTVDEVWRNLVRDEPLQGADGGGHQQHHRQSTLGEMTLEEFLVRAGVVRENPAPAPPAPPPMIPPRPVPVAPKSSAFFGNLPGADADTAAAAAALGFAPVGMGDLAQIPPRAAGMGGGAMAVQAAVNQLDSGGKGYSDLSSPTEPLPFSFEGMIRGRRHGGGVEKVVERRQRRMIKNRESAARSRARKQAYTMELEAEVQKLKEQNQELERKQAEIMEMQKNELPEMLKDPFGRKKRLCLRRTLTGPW

Data set [3] relates to T3, ABP9 (in cells) (Zea mays).
T3 sequence: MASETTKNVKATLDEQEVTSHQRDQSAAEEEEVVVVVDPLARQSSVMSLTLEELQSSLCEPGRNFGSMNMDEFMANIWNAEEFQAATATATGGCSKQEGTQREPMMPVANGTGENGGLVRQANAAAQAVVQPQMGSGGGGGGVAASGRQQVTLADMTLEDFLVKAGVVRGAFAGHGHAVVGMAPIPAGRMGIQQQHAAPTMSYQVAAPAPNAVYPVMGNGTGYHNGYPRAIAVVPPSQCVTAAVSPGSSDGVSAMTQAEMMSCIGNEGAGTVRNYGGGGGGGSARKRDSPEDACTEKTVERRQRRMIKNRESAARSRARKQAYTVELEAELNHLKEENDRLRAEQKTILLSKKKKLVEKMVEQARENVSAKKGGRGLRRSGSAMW

Setting [4] is: 4mer ABRE HIS3 reporter yeast grows on His-, also activates reporter in maize cells (FIG. 4).
The mark [5] stands for this setting: 4mer mABRE HIS3 reporter, no growth, variant of ABRE.

No signal at the amounts used counts as a negative. Protein sequences can lack the tags named with them.

Regarding “GAAGTCCACGTGGAGGTGG / TCCCACCTCCACGTGGACT [ABRE]”, the “activity on this sequence” value in data set [1] (setting [4]), in data set [2] (setting [4]) and in data set [3] (setting [4]) was “active” in each case.
In the case of “GAAGTAACATGTTCGGTGG / TCCCACCGAACATGTTACT [mABRE]”, the “activity on this sequence” value in data set [1] (setting [5]), in data set [2] (setting [5]) and in data set [3] (setting [5]) was “not active” in each case.
